# According to PMC11253400:
# Protein sequences, listed by entry. Tags and fused reporters are not part of them.
# UniProt Q9R1E0: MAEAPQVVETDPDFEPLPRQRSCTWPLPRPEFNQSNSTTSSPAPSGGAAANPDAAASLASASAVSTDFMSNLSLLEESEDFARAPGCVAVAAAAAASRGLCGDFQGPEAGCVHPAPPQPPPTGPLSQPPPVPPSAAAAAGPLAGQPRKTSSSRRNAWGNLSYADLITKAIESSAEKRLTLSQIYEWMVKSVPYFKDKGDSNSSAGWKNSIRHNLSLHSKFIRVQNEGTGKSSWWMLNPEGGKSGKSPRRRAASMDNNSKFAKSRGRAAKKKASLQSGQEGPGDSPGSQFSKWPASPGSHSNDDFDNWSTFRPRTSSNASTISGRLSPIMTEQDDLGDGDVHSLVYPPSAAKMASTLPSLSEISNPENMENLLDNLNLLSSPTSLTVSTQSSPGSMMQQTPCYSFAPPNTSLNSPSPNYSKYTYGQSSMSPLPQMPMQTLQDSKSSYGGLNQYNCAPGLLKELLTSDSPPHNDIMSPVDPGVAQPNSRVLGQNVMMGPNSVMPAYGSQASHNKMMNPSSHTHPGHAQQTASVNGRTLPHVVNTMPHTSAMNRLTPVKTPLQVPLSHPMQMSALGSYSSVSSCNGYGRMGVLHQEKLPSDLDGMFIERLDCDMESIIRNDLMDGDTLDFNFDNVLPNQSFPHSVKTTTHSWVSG
# UniProt Q9WVH4: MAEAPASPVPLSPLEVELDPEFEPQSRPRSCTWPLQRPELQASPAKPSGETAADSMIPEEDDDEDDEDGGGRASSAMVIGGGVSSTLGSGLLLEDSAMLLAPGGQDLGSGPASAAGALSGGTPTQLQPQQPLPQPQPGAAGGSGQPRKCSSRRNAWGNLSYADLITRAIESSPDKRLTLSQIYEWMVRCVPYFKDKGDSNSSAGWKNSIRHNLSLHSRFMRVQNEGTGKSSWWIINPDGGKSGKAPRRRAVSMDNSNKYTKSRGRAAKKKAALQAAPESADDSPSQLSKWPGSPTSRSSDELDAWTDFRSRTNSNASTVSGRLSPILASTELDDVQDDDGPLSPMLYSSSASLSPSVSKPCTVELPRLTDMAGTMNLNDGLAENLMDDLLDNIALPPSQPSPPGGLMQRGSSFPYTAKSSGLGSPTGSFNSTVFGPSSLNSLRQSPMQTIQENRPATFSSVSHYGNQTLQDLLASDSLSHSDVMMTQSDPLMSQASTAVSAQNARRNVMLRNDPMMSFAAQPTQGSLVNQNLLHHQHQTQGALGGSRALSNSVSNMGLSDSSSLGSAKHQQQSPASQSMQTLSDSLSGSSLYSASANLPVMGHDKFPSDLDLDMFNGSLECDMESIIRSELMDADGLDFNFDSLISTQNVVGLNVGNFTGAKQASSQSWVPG
# These are yes or no findings as the source states them, for the method shown. In cells and extracts the contact can be indirect. Some results given as binding are weak or reduced against the parent protein; the word gives no strength.
# Biological target: T1, SIRT1 (mouse (endogenous in mesangial cells; species only loosely stated)) (UniProt Q923E4)
# T1 sequence: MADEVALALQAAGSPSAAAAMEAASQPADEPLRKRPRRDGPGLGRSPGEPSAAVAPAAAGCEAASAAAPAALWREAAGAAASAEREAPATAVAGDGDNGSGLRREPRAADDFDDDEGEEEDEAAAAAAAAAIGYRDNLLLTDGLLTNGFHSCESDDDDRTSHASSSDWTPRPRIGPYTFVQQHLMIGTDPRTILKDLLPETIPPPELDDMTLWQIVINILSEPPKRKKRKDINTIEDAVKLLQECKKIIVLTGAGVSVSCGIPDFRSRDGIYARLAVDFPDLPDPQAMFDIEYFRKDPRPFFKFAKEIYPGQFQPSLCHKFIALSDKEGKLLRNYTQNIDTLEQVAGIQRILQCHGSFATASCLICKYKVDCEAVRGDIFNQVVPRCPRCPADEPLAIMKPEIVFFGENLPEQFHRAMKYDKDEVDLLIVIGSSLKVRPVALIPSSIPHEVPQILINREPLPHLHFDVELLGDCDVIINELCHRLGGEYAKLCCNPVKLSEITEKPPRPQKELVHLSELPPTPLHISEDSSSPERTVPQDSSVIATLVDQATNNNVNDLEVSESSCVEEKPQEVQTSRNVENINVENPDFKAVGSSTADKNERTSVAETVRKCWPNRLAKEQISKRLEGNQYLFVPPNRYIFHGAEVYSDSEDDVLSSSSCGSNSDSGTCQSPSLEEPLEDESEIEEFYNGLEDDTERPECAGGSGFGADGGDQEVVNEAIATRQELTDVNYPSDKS
# Experiment: co-IP; Pierce Co-Immunoprecipitation Kit; cell lysates kept with anti-SIRT1 antibody (ab110304) at 4 °C for 12 h, then magnetic beads coupled with rabbit anti-mouse IgG for 8 h at 4 °C; boiled with SDS buffer, western blotting
row,Substance,binding
1,FOXO1 (from UniProt Q9R1E0 1-652),binds
2,FOXO3a (from UniProt Q9WVH4 1-672),binds
